At least one structure is not confirmed: it was looked up by name or label, or the drawing left a doubt.
Tested on: hearts from normoxic rabbits
Experiment: Mechanism studies: inhibitors/blockers perfused alone, then with erythropoietin, before global ischemia
Set-up: species or system New Zealand White rabbit
Settings: inhibitor 15 min alone, then 15 min with erythropoietin 1.0 U/ml prior to ischemia
Protocol: Resistance to myocardial ischemia. Hearts from infant rabbits were perfused with bicarbonate buffer, and biventricular function was monitored continuously throughout each experiment as described in Rafiee et al., Circulation 106:239-45 (2002). For concentration response studies, hearts were then perfused with erythropoietin (0.5-10.0 U/ml) for 15 minutes prior to 30 minutes ischemia and 35 minutes reperfusion. For mechanism studies with protein kinase inhibitors, potassium channel blockers or nitric oxide synthase inhibitors, hearts were perfused with drugs for 15 minutes alone followed by 15 minutes in combination with erythropoietin prior to ischemia. Hearts perfused with protein kinase inhibitors or potassium channel blockers alone in the absence of erythropoietin for 30 minutes prior to ischemia served as untreated controls for these studies. Recovery of post-ischemic left and right ventricular developed pressure was expressed as a percentage of its pre-drug, pre-ischemic value.
Hearts from normoxic rabbits were perfused with protein kinase inhibitors alone for 15 minutes and then combined with erythropoietin for a further 15 minute period prior to ischemia.
Hearts were perfused with KATP channel blockers alone for 15 minutes and then in combination with erythropoietin (1.0 U/ml) for another 15-minute period prior to ischemia. […]

## Oc1c2ccccc2c2c3c(cccc13)N=N2 [SP600125]
  effect of protein kinase inhibitor on the cardioprotective effect of erythropoietin: abolished
